## Drug screen on melanoma cell lines: apoptosis marker

Values as published with doi:10.1371/journal.pone.0140310, rounded.

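Human melanoma cell lines in 1,536-well plates were treated with a pair of drugs for 72 h, then fixed, stained and imaged. Each value is the cleaved-PARP-positive fraction of nuclei relative to DMSO-treated wells, in %, so that 100 equals the control and higher values mean more apoptosis. Every drug was used at one fixed concentration, the higher of two screened. No replicate spread is given; individual values may be noisy. The marker varies much from line to line, for technical or biological reasons.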
Only some of the drugs and lines screened are listed, without regard to their results.

Drugs:
enzastaurin, 4 µM: Cn1cc(C2=C(c3cn(C4CCN(Cc5ccccn5)CC4)c4ccccc34)C(=O)NC2=O)c2ccccc21
A-769662, 10 µM: N#Cc1c(O)c2c(-c3ccc(-c4ccccc4O)cc3)csc2[nH]c1=O
tozasertib, 0.03 µM: Cc1cc(Nc2cc(N3CCN(C)CC3)nc(Sc3ccc(NC(=O)C4CC4)cc3)n2)n[nH]1
JZL184, 5 µM: O=C(Oc1ccc([N+](=O)[O-])cc1)N1CCC(C(O)(c2ccc3c(c2)OCO3)c2ccc3c(c2)OCO3)CC1
tamatinib, 2 µM: COc1cc(Nc2ncc(F)c(Nc3ccc4c(n3)NC(=O)C(C)(C)O4)n2)cc(OC)c1OC
dasatinib, 0.02 µM: Cc1nc(Nc2ncc(C(=O)Nc3c(C)cccc3Cl)s2)cc(N2CCN(CCO)CC2)n1
YM155, 0.002 µM: COCC[n+]1c2c(n(Cc3cnccn3)c1C)C(=O)c1ccccc1C2=O
stibogluconate, 10 µM: O=C(O)[C@@H]1[O][Sb](=[O])([O][Sb]2(=[O])[O][C@H]([C@H](O)CO)[C@H](O)[C@H](C(=O)O)[O]2)[O][C@H]([C@H](O)CO)[C@@H]1O (stereo partly specified)
SU6656, 2 µM: CN(C)S(=O)(=O)c1ccc2c(c1)/C(=C/c1cc3c([nH]1)CCCC3)C(=O)N2

- tamatinib and stibogluconate | SK-MEL-28: 90.3; C32: 380
- A-769662 and tamatinib | SK-MEL-28: 217; C32: 107
- tozasertib and tamatinib | SK-MEL-28: 96.0; C32: 246
- SU6656 and JZL184 | SK-MEL-28: 102; C32: 113
- enzastaurin and JZL184 | SK-MEL-28: 571; C32: 165
- SU6656 and YM155 | SK-MEL-28: 250; C32: 70.3
- YM155 and tamatinib | SK-MEL-28: 593; C32: 211
- stibogluconate and A-769662 | SK-MEL-28: 108; C32: 76.4
- YM155 and stibogluconate | SK-MEL-28: 319; C32: 78.1
- enzastaurin and YM155 | SK-MEL-28: 126; C32: 68.4
- enzastaurin and dasatinib | SK-MEL-28: 310; C32: 61.8
- enzastaurin and tozasertib | SK-MEL-28: 129; C32: 196
- stibogluconate and enzastaurin | SK-MEL-28: 56.2; C32: 161
- YM155 and A-769662 | SK-MEL-28: 274; C32: 84.5
- SU6656 and tozasertib | SK-MEL-28: 104; C32: 297
- tamatinib and enzastaurin | SK-MEL-28: 149; C32: 510
- YM155 and dasatinib | SK-MEL-28: 488; C32: 1370
- enzastaurin and A-769662 | SK-MEL-28: 164; C32: 89.0
- JZL184 and stibogluconate | SK-MEL-28: 99.4; C32: 90.5
- A-769662 and SU6656 | SK-MEL-28: 64.9; C32: 88.4
- A-769662 and tozasertib | SK-MEL-28: 142; C32: 96.0
- YM155 and tozasertib | SK-MEL-28: 454; C32: 73.0
- SU6656 and enzastaurin | SK-MEL-28: 165; C32: 213
- dasatinib and tamatinib | SK-MEL-28: 90.1; C32: 1750
- dasatinib and tozasertib | SK-MEL-28: 161; C32: 1600
- YM155 and JZL184 | SK-MEL-28: 407; C32: 97.3
- tozasertib and stibogluconate | SK-MEL-28: 194; C32: 39.9
- JZL184 and tozasertib | SK-MEL-28: 104; C32: 115
- dasatinib and A-769662 | SK-MEL-28: 127; C32: 128
- dasatinib and SU6656 | SK-MEL-28: 157; C32: 550